Data published in doi:10.1101/2021.06.20.449167 (bioRxiv, 2021).
No constants are given. Whether binding was seen depends on the method and setting. For some assays here: In cells and extracts the contact can be indirect. Some entries that bind do so weakly or less than the wild type. For some assays here: Sequences can lack the tags named with a protein. One block for each binder: values may come before it.

Sequences of proteins named here, by UniProt entry; tags and fusion partners are left off.
UniProt P20339, whole entry: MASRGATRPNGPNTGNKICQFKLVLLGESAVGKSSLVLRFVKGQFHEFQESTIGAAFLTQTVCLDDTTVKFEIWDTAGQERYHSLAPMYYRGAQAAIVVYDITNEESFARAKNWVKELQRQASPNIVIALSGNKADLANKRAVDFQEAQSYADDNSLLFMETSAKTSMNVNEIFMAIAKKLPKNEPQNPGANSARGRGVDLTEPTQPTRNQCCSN

Experiments:
[1] = target: T1, GST-Fy-2 (Ppp1r21) (human) (UniProt Q6ZMI0); test: pull-down
T1 sequence: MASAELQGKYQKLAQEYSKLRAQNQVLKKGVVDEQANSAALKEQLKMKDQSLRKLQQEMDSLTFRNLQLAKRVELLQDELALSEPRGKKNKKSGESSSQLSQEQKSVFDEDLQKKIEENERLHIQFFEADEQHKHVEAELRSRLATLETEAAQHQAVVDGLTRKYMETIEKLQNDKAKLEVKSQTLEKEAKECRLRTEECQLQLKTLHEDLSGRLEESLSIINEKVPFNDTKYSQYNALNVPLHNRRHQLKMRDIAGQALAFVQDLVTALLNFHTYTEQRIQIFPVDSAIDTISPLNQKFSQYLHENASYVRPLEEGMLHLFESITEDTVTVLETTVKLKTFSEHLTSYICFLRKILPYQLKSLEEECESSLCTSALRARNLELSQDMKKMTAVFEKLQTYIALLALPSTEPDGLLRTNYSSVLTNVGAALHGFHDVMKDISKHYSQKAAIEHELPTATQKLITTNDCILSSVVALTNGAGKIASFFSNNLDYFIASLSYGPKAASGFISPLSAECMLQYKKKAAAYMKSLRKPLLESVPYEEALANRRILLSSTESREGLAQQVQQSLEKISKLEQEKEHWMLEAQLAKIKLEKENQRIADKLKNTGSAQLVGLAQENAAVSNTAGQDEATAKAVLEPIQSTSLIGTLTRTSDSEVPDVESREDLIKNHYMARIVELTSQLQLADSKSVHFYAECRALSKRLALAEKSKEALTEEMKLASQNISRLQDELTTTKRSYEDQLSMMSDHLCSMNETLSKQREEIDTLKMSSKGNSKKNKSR

GST-Rab5 (human) = GST-Rab5 (human) (UniProt P20339); test: pull-down
[2] = target: T2, His6-Fy-1 (Tbck), subunit of the reconstituted FERRY complex (human) (UniProt Q8TEA7); test: mass photometry
T2 sequence: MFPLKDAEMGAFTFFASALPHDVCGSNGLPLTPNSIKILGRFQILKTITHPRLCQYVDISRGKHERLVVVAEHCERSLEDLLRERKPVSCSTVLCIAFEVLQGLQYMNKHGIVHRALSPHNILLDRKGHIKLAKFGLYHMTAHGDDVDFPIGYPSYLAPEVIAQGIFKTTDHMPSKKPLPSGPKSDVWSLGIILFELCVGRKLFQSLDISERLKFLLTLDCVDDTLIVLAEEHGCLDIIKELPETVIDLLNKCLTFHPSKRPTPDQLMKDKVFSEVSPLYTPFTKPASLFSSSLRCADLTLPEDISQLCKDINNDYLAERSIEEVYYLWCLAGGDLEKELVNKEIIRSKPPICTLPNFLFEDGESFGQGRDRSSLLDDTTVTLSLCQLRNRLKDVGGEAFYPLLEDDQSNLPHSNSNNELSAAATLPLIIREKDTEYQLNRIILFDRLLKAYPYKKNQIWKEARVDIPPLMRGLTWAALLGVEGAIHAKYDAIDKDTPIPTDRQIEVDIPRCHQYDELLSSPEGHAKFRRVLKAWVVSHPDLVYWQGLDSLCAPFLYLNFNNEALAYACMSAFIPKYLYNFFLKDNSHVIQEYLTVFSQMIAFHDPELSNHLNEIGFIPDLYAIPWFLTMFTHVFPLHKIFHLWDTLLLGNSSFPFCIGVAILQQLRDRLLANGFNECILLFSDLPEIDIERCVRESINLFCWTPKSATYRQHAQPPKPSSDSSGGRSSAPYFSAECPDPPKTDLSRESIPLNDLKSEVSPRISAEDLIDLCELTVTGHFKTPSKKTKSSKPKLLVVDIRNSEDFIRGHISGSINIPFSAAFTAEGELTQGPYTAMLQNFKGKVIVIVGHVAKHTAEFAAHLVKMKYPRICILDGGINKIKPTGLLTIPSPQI

B3: Fy-2 (Ppp1r21), untagged subunit of the reconstituted FERRY complex (natural protein, human, UniProt Q6ZMI0 1-780, looked up)
chain: T1 sequence
binding [2]: binds

B4: Fy-2 (Ppp1r21), in vitro translated (protein, UniProt Q6ZMI0 1-780)
chain: T1 sequence
modifications: [35S]-methionine-labelled
binding (GST-Rab5 (human)): binds

B7: Fy-3 (C12orf4), in vitro translated (protein, UniProt Q9NQ89 1-552)
chain: MKKNRERFCNREREFVYKFKVGSQCLELRVPLKFPVQENASHLHGRLMLLHSLPCFIEKDLKEALTQFIEEESLSDYDRDAEASLAAVKSGEVDLHQLASTWAKAYAETTLEHARPEEPSWDEDFADVYHDLIHSPASETLLNLEHNYFVSISELIGERDVELKKLRERQGIEMEKVMQELGKSLTDQDVNSLAAQHFESQQDLENKWSNELKQSTAIQKQEYQEWVIKLHQDLKNPNNSSLSEEIKVQPSQFRESVEAIGRIYEEQRKLEESFTIHLGAQLKTMHNLRLLRADMLDFCKHKRNHRSGVKLHRLQTALSLYSTSLCGLVLLVDNRINSYSGIKRDFATVCQECTDFHFPRIEEQLEVVQQVVLYARTQRRSKLKESLDSGNQNGGNDDKTKNAERNYLNVLPGEFYITRHSNLSEIHVAFHLCVDDHVKSGNITARDPAIMGLRNILKVCCTHDITTISIPLLLVHDMSEEMTIPWCLRRAELVFKCVKGFMMEMASWDGGISRTVQFLVPQSISEEMFYQLSNMLPQIFRVSSTLTLTSKH
modifications: [35S]-methionine-labelled
binding (GST-Rab5 (human)): no binding

Results, then the binder that gave them:

binding [1]: binds
B1: His6-Fy-4 (Cryzl1) (natural protein, human, UniProt O95825 1-349, looked up)
chain: MKGLYFQQSSTDEEITFVFQEKEDLPVTEDNFVKLQVKACALSQINTKLLAEMKMKKDLFPVGREIAGIVLDVGSKVSFFQPDDEVVGILPLDSEDPGLCEVVRVHEHYLVHKPEKVTWTEAAGSIRDGVRAYTALHYLSHLSPGKSVLIMDGASAFGTIAIQLAHHRGAKVISTACSLEDKQCLERFRPPIARVIDVSNGKVHVAESCLEETGGLGVDIVLDAGVRLYSKDDEPAVKLQLLPHKHDIITLLGVGGHWVTTEENLQLDPPDSHCLFLKGATLAFLNDEVWNLSNVQQGKYLCILKDVMEKLSTGVFRPQLDEPIPLYEAKVSMEAVQKNQGRKKQVVQF

binding (GST-Rab5 (human)): no binding
B2: Fy-4 (Cryzl1), in vitro translated (protein, UniProt O95825 1-349)
chain: B1 chain
modifications: [35S]-methionine-labelled

binding (GST-Rab5 (human)): no binding
B5: Fy-5 (Gatd1), in vitro translated (protein, UniProt Q8NB37 1-220)
chain: MASERLPNRPACLLVASGAAEGVSAQSFLHCFTMASTAFNLQVATPGGKAMEFVDVTESNARWVQDFRLKAYASPAKLESIDGARYHALLIPSCPGALTDLASSGSLARILQHFHSESKPICAVGHGVAALCCATNEDRSWVFDSYSLTGPSVCELVRAPGFARLPLVVEDFVKDSGACFSASEPDAVHVVLDRHLVTGQNASSTVPAVQNLLFLCGSRK
modifications: [35S]-methionine-labelled

binding [1]: binds
binding [2]: binds
B6: Fy-3 (C12orf4), untagged subunit of the recombinant FERRY and GST-FERRY complexes (natural protein, human, UniProt Q9NQ89 1-552, looked up)
chain: B7 chain
